In article PMC13254595:

Target: T1, iron regulatory protein 1 (IRP1) (human (endogenous in PANC-1 and Patu-8988)) (UniProt P21399)
T1 sequence: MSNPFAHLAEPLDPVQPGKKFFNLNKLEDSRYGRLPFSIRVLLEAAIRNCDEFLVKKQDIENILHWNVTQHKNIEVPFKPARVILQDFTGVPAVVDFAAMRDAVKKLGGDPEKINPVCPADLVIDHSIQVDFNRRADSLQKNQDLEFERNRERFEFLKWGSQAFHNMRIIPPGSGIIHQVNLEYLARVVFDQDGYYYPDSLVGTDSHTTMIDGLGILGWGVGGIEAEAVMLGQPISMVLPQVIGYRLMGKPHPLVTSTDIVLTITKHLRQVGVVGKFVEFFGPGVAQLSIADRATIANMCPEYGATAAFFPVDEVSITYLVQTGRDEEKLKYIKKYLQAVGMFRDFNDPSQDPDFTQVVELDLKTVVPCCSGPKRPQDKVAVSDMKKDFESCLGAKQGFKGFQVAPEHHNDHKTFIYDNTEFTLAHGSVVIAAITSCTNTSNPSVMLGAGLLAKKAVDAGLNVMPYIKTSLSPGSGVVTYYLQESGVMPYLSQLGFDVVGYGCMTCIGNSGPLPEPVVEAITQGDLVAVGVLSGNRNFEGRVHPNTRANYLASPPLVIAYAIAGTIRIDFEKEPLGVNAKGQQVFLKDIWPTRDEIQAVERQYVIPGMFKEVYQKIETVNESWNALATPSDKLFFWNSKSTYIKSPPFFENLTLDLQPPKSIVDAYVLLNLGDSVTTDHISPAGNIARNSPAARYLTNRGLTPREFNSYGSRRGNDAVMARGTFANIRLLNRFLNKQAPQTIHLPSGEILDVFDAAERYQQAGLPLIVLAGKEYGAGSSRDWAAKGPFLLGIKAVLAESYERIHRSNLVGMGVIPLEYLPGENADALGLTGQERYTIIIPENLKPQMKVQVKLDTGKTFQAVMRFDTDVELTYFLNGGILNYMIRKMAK
Test: affinity purification with mass spectrometry; co-immunoprecipitation with IRP1 antibody, then liquid chromatography-mass spectrometry (gel strip); hits intersected with PRO-DIA proteome (IRP1-overexpressed) and two GSEA gene sets; cell line not stated

B1: A + T rich interaction domain protein 3a (ARID3A) (protein, UniProt Q99856 1-593)
chain: MKLQAVMETLLQRQQRARQELEARQQLPPDPPAAPPGRARAAPDEDREPESARMQRAQMAALAAMRAAAAGLGHPASPGGSEDGPPGSEEEDAAREGTPGSPGRGREGPGEEHFEDMASDEDMKPKWEEEEMEEDLGEDEEEEEEDYEDEEEEEDEEGLGPPGPASLGTTALFPRKAQPPQAFRGDGVPRVLGGQERPGPGPAHPGGAAHVAPQLQPPDHGDWTYEEQFKQLYELDGDPKRKEFLDDLFSFMQKRGTPVNRIPIMAKQVLDLFMLYVLVTEKGGLVEVINKKLWREITKGLNLPTSITSAAFTLRTQYMKYLYPYECEKRGLSNPNELQAAIDSNRREGRRQSFGGSLFAYSPGGAHGMLSSPKLPVSSLGLAASTNGSSITPAPKIKKEEDSAIPITVPGRLPVSLAGHPVVAAQAAAVQAAAAQAAVAAQAAALEQLREKLESAEPPEKKMALVADEQQRLMQRALQQNFLAMAAQLPMSIRINSQASESRQDSAVNLTGTNGSNSISMSVEINGIMYTGVLFAQPPAPTPTSAPNKGGGGGGGSSSNAGGRGGNTGTSGGQAGPAGLSTPSTSTSNNSLP
B1 was tested, and the binding was “binds”.

No constants are given. Whether binding was seen depends on the method and setting. Binding seen in cells or lysates may run through a third protein. Here binding means that the protein was enriched with, or labelled near, the bait; the list need not be complete.
